Source: the supplement of paper PMC12819154, “High-throughput peptide-centric local stability assay extends protein–ligand identification to membrane proteins, tissues and bacteria” (Nature Structural & Molecular Biology, 2025)
The other results are listed elsewhere or left out. Most values lie at the level of the controls, where differences are scatter.

By UniProt entry, the sequences of proteins in these tests, tags left out. Where a name states a change or a piece, a line headed by the entry shows the natural chain unless it says otherwise.
UniProt Q6UB35, whole entry: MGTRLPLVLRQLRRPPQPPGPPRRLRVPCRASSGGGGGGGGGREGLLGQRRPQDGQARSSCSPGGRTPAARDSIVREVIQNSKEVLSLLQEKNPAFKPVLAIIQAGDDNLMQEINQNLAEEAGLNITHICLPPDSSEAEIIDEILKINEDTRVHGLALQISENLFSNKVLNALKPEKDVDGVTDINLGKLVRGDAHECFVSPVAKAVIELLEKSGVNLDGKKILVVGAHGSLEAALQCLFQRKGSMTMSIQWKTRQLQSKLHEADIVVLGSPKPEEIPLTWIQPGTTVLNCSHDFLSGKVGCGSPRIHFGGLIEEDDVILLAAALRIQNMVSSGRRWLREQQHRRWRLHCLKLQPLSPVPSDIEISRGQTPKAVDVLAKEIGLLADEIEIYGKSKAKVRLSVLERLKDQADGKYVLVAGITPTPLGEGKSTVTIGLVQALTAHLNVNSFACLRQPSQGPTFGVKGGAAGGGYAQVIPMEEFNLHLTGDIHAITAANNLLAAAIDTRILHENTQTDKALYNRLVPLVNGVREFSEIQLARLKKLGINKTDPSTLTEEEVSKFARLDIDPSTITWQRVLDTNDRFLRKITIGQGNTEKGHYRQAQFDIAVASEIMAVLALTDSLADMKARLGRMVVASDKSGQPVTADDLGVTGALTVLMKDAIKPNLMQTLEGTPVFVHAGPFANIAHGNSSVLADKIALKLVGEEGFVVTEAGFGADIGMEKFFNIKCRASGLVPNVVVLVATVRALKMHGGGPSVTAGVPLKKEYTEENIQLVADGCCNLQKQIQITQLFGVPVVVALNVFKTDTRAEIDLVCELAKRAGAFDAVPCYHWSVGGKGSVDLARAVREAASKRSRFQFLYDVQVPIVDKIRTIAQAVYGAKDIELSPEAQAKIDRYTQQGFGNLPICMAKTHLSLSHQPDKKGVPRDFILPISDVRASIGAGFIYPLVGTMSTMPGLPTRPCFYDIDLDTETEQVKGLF
UniProt Q6P087: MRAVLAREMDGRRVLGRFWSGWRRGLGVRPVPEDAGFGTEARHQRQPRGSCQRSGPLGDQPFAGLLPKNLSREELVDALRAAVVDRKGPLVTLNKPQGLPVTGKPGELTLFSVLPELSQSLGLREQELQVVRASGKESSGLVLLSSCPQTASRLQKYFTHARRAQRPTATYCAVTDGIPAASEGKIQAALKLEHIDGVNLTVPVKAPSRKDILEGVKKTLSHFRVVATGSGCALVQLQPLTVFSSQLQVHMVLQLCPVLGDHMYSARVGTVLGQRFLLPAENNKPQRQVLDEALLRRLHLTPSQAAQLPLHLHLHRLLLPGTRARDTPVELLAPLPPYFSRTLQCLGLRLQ
UniProt Q6UB99: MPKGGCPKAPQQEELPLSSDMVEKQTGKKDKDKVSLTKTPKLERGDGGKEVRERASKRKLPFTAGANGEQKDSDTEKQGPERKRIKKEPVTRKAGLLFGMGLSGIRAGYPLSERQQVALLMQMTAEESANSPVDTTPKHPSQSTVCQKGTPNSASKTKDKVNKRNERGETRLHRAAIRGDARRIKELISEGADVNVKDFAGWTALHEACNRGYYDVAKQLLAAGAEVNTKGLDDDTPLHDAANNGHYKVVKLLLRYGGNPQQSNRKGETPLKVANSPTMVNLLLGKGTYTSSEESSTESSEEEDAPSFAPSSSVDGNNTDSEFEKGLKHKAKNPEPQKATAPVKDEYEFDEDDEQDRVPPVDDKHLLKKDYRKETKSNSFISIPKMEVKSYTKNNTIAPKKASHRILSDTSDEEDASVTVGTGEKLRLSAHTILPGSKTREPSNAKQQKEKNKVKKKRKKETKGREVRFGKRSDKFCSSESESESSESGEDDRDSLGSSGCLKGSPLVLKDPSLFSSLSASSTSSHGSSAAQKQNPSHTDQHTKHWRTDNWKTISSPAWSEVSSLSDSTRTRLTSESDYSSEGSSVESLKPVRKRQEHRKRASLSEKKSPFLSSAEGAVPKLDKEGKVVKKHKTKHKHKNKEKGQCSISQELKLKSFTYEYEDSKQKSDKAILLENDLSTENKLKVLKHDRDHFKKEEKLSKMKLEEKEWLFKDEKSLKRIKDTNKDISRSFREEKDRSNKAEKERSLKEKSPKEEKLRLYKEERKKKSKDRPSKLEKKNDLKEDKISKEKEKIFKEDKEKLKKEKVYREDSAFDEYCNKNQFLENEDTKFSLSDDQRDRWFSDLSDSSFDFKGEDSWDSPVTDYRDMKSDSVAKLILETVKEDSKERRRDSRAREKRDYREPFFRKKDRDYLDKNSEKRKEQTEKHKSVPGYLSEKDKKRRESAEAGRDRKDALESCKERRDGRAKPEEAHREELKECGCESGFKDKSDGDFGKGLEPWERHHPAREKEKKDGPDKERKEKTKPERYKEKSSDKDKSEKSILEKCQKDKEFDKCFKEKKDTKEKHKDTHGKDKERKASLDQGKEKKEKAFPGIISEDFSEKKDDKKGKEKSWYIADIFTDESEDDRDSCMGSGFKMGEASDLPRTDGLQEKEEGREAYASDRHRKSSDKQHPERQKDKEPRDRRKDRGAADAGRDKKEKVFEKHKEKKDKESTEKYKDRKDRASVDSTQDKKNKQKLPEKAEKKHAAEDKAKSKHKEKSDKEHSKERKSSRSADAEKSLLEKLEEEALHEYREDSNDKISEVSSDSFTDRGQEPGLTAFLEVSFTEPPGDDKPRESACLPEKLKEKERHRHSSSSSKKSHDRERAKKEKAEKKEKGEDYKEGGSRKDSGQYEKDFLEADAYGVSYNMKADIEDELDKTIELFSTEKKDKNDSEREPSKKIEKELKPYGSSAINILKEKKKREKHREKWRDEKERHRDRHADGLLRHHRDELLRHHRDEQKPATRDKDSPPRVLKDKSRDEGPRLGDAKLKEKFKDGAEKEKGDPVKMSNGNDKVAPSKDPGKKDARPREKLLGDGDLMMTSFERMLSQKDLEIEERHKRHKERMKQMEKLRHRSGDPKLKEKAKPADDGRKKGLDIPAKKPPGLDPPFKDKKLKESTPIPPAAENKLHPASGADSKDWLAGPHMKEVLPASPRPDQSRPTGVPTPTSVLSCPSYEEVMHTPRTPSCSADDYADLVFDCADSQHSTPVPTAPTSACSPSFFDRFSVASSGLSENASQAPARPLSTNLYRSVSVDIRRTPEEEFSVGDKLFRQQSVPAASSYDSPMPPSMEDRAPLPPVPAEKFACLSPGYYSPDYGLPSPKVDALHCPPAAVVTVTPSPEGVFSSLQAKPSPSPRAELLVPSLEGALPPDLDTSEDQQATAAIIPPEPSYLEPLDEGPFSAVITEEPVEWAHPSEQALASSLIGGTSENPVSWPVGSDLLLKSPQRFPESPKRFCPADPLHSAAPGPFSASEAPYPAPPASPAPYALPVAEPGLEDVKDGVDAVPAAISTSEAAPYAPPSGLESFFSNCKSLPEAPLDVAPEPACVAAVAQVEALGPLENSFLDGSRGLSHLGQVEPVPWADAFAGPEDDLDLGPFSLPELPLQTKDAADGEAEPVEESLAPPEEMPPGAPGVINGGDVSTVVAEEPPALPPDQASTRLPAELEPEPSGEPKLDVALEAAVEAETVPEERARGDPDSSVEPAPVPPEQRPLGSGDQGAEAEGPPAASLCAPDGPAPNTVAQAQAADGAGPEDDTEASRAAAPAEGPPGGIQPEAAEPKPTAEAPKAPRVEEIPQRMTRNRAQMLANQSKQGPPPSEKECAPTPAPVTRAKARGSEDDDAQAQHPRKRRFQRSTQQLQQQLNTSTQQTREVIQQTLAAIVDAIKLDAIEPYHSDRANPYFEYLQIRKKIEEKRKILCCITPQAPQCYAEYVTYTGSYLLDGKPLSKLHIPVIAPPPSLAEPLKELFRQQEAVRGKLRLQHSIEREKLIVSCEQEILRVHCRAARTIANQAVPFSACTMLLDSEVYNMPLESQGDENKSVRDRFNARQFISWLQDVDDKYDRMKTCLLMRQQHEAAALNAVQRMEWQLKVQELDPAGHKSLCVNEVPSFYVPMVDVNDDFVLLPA
UniProt Q6ICB0: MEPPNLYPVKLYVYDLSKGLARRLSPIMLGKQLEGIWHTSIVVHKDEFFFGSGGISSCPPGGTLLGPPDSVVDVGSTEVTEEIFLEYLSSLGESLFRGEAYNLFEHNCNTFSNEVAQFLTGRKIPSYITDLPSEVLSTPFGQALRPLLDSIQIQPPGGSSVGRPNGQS
UniProt Q63HQ0: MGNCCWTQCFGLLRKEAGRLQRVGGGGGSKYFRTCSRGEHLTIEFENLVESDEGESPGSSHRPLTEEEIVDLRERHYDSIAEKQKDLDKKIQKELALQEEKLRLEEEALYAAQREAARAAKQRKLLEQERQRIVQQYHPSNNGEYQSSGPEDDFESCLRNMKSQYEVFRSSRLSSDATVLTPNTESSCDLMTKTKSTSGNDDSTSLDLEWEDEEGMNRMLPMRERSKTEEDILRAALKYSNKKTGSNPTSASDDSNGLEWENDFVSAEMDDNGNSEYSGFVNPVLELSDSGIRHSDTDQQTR
UniProt Q68DK7: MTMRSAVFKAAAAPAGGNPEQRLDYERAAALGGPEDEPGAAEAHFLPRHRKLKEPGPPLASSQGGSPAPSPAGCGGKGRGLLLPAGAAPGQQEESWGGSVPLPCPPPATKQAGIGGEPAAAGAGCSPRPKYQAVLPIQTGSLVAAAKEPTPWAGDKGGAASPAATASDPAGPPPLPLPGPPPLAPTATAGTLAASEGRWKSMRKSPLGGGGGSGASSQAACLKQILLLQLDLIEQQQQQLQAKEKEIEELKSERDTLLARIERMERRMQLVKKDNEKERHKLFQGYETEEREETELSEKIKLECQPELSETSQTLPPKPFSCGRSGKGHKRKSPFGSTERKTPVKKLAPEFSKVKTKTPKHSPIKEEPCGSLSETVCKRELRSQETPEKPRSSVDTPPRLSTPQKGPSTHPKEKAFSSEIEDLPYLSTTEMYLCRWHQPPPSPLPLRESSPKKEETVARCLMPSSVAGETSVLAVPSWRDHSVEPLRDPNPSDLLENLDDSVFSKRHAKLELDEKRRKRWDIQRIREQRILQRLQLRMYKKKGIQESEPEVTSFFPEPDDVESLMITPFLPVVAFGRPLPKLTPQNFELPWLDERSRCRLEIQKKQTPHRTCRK
UniProt Q6PIJ6: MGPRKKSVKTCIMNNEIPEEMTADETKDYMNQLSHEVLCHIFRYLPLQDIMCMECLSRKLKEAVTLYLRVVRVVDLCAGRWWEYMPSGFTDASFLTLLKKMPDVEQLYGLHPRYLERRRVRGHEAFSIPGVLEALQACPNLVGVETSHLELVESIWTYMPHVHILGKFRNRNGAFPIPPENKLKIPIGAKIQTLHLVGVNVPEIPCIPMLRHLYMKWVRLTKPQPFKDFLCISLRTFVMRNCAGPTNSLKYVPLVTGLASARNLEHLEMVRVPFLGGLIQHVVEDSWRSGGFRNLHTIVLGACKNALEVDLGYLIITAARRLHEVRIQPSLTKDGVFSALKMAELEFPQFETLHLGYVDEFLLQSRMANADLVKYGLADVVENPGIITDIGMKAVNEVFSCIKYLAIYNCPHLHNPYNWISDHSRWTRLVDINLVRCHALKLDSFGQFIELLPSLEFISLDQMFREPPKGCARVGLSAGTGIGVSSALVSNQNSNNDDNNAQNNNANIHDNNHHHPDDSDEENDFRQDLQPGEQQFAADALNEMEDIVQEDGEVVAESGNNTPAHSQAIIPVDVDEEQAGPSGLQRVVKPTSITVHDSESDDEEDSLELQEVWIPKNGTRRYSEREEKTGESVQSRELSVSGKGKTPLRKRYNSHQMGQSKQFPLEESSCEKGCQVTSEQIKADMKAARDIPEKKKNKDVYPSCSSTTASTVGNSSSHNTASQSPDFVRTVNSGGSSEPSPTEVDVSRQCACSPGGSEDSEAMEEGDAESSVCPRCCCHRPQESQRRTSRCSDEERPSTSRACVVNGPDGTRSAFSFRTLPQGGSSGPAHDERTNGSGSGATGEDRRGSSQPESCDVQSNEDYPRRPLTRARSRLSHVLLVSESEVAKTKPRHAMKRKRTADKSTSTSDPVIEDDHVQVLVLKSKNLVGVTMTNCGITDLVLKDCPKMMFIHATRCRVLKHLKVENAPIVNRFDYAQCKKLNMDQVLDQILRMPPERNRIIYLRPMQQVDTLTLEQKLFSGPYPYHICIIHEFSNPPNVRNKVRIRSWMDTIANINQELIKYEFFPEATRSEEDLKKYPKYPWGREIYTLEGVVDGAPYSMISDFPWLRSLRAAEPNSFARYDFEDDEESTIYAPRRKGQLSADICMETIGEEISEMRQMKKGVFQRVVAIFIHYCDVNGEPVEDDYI
UniProt Q5VTD9: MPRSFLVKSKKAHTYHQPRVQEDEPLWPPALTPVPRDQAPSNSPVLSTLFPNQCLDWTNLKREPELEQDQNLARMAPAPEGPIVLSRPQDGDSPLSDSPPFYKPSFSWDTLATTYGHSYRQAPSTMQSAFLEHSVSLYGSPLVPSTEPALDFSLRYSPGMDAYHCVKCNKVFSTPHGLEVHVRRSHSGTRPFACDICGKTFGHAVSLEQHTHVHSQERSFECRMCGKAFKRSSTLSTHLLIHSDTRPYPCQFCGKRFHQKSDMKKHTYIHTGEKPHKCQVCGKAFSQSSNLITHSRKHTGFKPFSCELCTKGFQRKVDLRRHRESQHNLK

These targets were tested with Cc1nc(Nc2ncc(C(=O)Nc3c(C)cccc3Cl)s2)cc(N2CCN(CCO)CC2)n1 [dasatinib] (assay: log2 fold change of tryptic peptide abundance, ligand vs vehicle (limited proteolysis) (log2 ratio); higher = more trypsin-susceptible (destabilized)). Settings: ligand concentration: 5 uM; sample: K562 cleared lysate.
“CDKAL1 (peptide sequence: MEQVPAQVKK, peptide start residue: 405) (UniProt Q5VV42)” was tested, and the log2 fold change was 0.323. “UniProt Q68DN1 (peptide sequence: HRSPSER, peptide start residue: 1566)” gave a log2 fold change of -0.109. “MTHFD1L (peptide sequence: SRFQFLYDVQVPIVDKIR, peptide start residue: 853) (UniProt Q6UB35)” showed a log2 fold change of -0.272. “C22orf39 (peptide sequence: DLASCRDWEER, peptide start residue: 85) (UniProt Q6P5X5)” was tested, and the log2 fold change was -0.111. With “RPUSD3 (peptide sequence: LEHIDGVNLTVPVKAPSR, peptide start residue: 192) (UniProt Q6P087)” the log2 fold change was -0.485. “UniProt Q659A1 (peptide sequence: ERNQIFHEVPLK, peptide start residue: 337)” showed a log2 fold change of 0.591. “RAB12 (peptide sequence: LQVIIIGSR, peptide start residue: 43) (UniProt Q6IQ22)” showed a log2 fold change of 0.35. “ATG16L1 (peptide sequence: SVSSFPVPQDNVDTHPGSGKEVR, peptide start residue: 287) (UniProt Q676U5)” gave a log2 fold change of -0.397. “MRPL54 (peptide sequence: TLEELDPESR, peptide start residue: 106) (UniProt Q6P161)” was tested, and the log2 fold change was 0.0443. “ANKRD11 (peptide sequence: AILLENDLSTENKLK, peptide start residue: 671) (UniProt Q6UB99)” was tested, and the log2 fold change was -0.502. “UniProt Q6ICB0 (peptide sequence: RLSPIMLGK, peptide start residue: 23)” showed a log2 fold change of 0.0533. “DCAF15 (peptide sequence: NSGAGSGGGGPGGAGGK, peptide start residue: 10) (UniProt Q66K64)” showed a log2 fold change of -0.304. Work on “UniProt Q6DT37 (peptide sequence: GAFGEVTVVR, peptide start residue: 80)” yielded a log2 fold change of -0.41. In the case of “PRPF8 (peptide sequence: QRVESHFDLELR, peptide start residue: 675) (UniProt Q6P2Q9)”, the log2 fold change is reported as 0.111. With “RINT1 (peptide sequence: MQLEEQVLTISSEIPKR, peptide start residue: 86) (UniProt Q6NUQ1)” the log2 fold change was 0.0753. Work on “ALKBH5 (peptide sequence: SVLLPTHR, peptide start residue: 350) (UniProt Q6P6C2)” yielded a log2 fold change of -0.196. Work on “UniProt Q6P3X8 (peptide sequence: SLDLGGSMVIK, peptide start residue: 323)” yielded a log2 fold change of 0.356. With “RNF20 (peptide sequence: IKSNQIHK, peptide start residue: 768) (UniProt Q5VTR2)” the log2 fold change was 0.221. Work on “UniProt Q6P2P2 (peptide sequence: DEAAGYFHK, peptide start residue: 118)” yielded a log2 fold change of 0.305. “UniProt Q63HQ0 (peptide sequence: SQYEVFR, peptide start residue: 163)” was tested, and the log2 fold change was -0.132. In the case of “DUS1L (peptide sequence: CVFSLCRGCCK, peptide start residue: 406) (UniProt Q6P1R4)”, the log2 fold change is reported as -0.271. For “CRTC3 (peptide sequence: RQPPVSPLTLSPGPEAHQGFSR, peptide start residue: 386) (UniProt Q6UUV7)”, the log2 fold change was -0.381. “UniProt Q5XUX0 (peptide sequence: CREEYGVCENLR, peptide start residue: 111)” was tested, and the log2 fold change was -0.455. Target “RCSD1 (peptide sequence: VKSSPLIEK, peptide start residue: 80) (UniProt Q6JBY9)” has a log2 fold change of -0.165. “JMJD6 (peptide sequence: DSLDWTR, peptide start residue: 22) (UniProt Q6NYC1)” was tested, and the log2 fold change was 0.432. Target “MSL1 (peptide sequence: KLKEPGPPLASSQGGSPAPSPAGCGGK, peptide start residue: 51) (UniProt Q68DK7)” has a log2 fold change of 0.946. Target “UniProt Q68CL5 (peptide sequence: GPSGPSGPSTSSTSK, peptide start residue: 275)” has a log2 fold change of -0.309. For “SHQ1 (peptide sequence: YNPWWTDKYSK, peptide start residue: 215) (UniProt Q6PI26)”, the log2 fold change was 0.284. Target “FBXO38 (peptide sequence: CSDEERPSTSR, peptide start residue: 791) (UniProt Q6PIJ6)” has a log2 fold change of 0.235. “UniProt Q6NUM6 (peptide sequence: AMITPALR, peptide start residue: 354)” was tested, and the log2 fold change was 0.0947. “UniProt Q5VTU8 (peptide sequence: YSQICAK, peptide start residue: 15)” gave a log2 fold change of 0.0211. In the case of “UniProt Q5XKL5 (peptide sequence: CGTMLCHDFLGR, peptide start residue: 1288)”, the log2 fold change is reported as 0.977. With “TYW3 (peptide sequence: ETMTNLHPK, peptide start residue: 199) (UniProt Q6IPR3)” the log2 fold change was -0.123. In the case of “GRAMD4 (peptide sequence: FGEYVEDFR, peptide start residue: 174) (UniProt Q6IC98)”, the log2 fold change is reported as 0.238. Target “PPP2R2D (peptide sequence: VPILKPMDLMVEASPR, peptide start residue: 160) (UniProt Q66LE6)” has a log2 fold change of -0.355. For “GFI1B (peptide sequence: AHTYHQPR, peptide start residue: 12) (UniProt Q5VTD9)”, the log2 fold change was 0.134. “UniProt Q68CQ4 (peptide sequence: DLFYPER, peptide start residue: 291)” was tested, and the log2 fold change was 0.183.
